Our source for the AC50 values is PubChem BioAssay AID662 (National Center for Advancing Translational Sciences (NCATS), 2007).

Some of the results follow. Further columns of the screen follow, without active or inactive calls. The list favours compounds with an active or inconclusive main result. The note in brackets gives the kind of curve behind each potency; many fits are weak.

The assay is described as follows: Cell signaling CRE-BLA (Fsk stim). The conditions noted are these: CHO CRE-bla reporter (cAMP response element driving beta-lactamase), forskolin EC10, beta-lactamase ratio; measured here: 460 nm blue channel. The gist of the method: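 Beta-lactamase reporter under a cAMP responsive element in CHO cells; compounds tested in titration series against EC10 NKH 477, 3 h at 37 °C. Read-out: CCF4 FRET ratio 460nm/530nm (excitation 405nm) giving %Activity, fitted to AC50.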
On to `O=S(=O)(c1ccc2c(c1)OCCO2)N1CCC(n2cnc3cc(F)ccc32)CC1`, for which the AC50 was 3.98 µM [rising, partial curve].

For `COc1ccc(CCn2c(-n3nc(C)cc3C)nc3c2c(=O)[nH]c(=O)n3C)cc1`, the AC50 is 0.0631 µM [rising, full curve, poor fit]. As to `C=CCc1cccc(CNc2nc3ccccc3n2CCN2CCOCC2)c1O`, the AC50 was 6.31 µM [falling, full curve, poor fit].

For `CN(C)c1nc(SCCOC(=O)Nc2ccccc2)nc(N(C)C)n1`, the AC50 is 10 µM [rising, partial curve]. Take `N#Cc1sc2nc3c(c(-c4ccco4)c2c1N)CCCC3`: the AC50 was 5.01 µM [falling, full curve]. For `CC1CN(C(=O)CSc2ncnc3sccc23)CC(C)O1` (stereo not drawn), the AC50 was 2.51 µM [falling, partial curve]. With `CN(C)c1ncc2ncc(=O)n(Cc3ccc(F)cc3)c2n1` the figure was 12.6 µM [rising, partial curve]; with `O=C1C2=C(Nc3ccccc3SC2c2ccco2)c2ccccc21` (stereo not drawn), 10 µM [falling, single point]; with `NC(=O)c1cnn2c1NC(c1ccc(F)cc1)CC2C(F)(F)F` (stereo not drawn), 25.1 µM [rising, single point].

In the case of `O=C(Nc1nccs1)c1cccc(S(=O)(=O)N2CCOCC2)c1`, the AC50 was 0.316 µM [falling, full curve]. In the case of `CCN1CCc2c(sc(NC(=O)c3ccc(S(=O)(=O)N4CCOCC4)cc3)c2C(=O)OC)C1`, the AC50 was 12.6 µM [rising, single point]. Consider `CCc1nc2ccccc2c(C(=O)OCC(=O)NCCCN2CCCC2=O)c1C`, for which the half-maximal activity concentration (AC50) is 7.94 µM [rising, partial curve]. For `CC(=O)c1sc2nc(SCC(=O)N3CCCCC3)[nH]c(=O)c2c1C`, the AC50 is 12.6 µM [falling, partial curve]. For `COc1ccc(-n2nnnc2SCC(=O)Nc2ccc3c(c2)OCCO3)cc1OC`, the AC50 was 12.6 µM [rising, partial curve].

As for `C=C(CO)[C@H]1Cc2c(ccc3c(=O)c4c(oc23)COc2cc(OC)c(OC)cc2-4)O1`, the AC50 was 2 µM [rising, partial curve, poor fit].

For `CC(C)(C)N(Cc1ccccc1)C(=O)c1ccc2c(c1)OCCO2`, the AC50 is 7.94 µM [rising, partial curve, poor fit]. With `CCNc1cccc2c1C(=O)N(C)C2=O`, the half-maximal activity concentration (AC50) was 12.6 µM [rising, partial curve]. On to `CCN(CC)S(=O)(=O)c1cccc(C(=O)Nc2nc3cc4c(cc3s2)OCCO4)c1`, for which the AC50 is 0.00398 µM [falling, full curve, poor fit].
